Values quoted from earlier work, collected in US11517536B2, “Pharmaceutical composition comprising pomalidomide” (SYNTHON B.V., priority 2016, dated 2022).
The name of at least one read-out is uncertain.

For `Nc1cccc2c1C(=O)N(C1CCC(=O)NC1=O)C2=O` (stereo not shown) [Pomalidomide, 4-amino-2-(2,6-dioxopiperidin-3-yl)isoindole-1,3-dione], the permeability is given as “low”.
